The supplement of paper PMC10849652
Some of the results follow.

Sequences of proteins named here, by UniProt entry; tags and fusion partners are left off. A change or cut given only in a name is not applied to a line headed by its entry.
UniProt P62879, whole entry, looked up: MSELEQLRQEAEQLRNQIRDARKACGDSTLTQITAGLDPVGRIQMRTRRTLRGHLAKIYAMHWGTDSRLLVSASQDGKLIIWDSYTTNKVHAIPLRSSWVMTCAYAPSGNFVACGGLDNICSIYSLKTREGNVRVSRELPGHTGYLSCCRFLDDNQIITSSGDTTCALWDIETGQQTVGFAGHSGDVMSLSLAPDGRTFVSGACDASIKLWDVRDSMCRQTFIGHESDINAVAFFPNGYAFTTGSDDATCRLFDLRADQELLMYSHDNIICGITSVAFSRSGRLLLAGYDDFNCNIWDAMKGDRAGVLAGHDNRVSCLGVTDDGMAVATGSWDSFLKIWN
UniProt Q14161: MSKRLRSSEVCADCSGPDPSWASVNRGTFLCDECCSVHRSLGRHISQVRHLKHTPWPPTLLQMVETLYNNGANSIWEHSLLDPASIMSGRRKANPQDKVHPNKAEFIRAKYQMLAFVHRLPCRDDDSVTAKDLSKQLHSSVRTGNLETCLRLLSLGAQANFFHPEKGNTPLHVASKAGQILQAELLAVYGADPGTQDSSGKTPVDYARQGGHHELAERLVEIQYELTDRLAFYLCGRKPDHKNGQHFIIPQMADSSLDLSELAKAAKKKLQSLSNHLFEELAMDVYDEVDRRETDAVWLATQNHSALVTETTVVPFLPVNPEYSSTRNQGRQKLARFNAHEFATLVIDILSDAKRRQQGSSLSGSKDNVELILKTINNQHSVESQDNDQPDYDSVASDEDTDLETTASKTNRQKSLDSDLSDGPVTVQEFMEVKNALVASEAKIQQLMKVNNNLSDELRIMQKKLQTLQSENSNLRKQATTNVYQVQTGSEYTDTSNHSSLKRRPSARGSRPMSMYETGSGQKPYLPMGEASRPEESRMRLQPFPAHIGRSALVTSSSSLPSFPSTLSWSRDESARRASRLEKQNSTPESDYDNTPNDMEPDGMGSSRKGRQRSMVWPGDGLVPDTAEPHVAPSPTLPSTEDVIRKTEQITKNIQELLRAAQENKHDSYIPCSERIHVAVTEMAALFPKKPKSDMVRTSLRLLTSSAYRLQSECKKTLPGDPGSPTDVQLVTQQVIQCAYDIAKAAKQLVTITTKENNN
UniProt Q92990: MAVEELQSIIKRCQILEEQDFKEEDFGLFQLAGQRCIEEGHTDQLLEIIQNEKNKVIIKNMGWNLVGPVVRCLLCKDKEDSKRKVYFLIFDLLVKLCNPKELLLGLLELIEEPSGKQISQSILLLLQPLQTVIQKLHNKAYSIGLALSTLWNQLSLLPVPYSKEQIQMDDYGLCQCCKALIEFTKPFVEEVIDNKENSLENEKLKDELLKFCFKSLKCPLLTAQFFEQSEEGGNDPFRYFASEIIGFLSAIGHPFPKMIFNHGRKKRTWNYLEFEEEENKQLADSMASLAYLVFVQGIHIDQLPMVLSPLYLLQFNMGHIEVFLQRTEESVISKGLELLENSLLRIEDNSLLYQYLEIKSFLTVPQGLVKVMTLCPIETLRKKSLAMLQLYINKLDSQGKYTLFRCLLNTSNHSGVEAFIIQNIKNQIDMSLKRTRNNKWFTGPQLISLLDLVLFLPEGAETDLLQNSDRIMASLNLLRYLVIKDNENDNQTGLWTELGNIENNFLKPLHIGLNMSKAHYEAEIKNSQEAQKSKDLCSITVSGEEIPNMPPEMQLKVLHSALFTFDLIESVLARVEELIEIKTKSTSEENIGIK
UniProt Q8TDQ7: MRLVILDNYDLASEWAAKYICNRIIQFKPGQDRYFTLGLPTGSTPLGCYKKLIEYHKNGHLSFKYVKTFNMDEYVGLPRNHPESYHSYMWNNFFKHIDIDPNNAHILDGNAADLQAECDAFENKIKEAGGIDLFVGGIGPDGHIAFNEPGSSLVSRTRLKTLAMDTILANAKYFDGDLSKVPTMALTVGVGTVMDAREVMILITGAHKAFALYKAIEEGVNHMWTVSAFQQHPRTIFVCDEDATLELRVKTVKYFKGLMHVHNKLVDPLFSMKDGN
UniProt P22352, whole entry, looked up: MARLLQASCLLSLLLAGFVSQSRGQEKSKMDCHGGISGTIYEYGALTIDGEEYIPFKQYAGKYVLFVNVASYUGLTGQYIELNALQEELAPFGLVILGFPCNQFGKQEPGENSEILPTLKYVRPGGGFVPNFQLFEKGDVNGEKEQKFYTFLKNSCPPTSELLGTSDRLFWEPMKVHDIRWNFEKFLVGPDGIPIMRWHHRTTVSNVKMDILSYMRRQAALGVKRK
UniProt Q8IXQ4: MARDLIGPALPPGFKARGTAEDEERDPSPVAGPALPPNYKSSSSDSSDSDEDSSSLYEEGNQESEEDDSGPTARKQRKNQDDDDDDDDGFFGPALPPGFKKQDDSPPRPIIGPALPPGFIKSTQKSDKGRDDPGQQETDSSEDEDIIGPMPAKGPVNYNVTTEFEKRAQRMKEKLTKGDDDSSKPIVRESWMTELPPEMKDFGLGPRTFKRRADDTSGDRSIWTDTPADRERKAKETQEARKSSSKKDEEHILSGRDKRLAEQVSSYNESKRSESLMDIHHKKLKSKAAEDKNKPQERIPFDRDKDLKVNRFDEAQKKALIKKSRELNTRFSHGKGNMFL
UniProt Q14749: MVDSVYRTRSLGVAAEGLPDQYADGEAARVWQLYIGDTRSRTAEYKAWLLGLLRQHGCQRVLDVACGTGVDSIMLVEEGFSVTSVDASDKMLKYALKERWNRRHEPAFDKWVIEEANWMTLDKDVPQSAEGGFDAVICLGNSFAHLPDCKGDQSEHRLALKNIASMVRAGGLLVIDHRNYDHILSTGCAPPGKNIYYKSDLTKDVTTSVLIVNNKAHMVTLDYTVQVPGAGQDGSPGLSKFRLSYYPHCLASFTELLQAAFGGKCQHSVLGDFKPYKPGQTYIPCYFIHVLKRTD
UniProt Q7Z5G4, whole entry, looked up: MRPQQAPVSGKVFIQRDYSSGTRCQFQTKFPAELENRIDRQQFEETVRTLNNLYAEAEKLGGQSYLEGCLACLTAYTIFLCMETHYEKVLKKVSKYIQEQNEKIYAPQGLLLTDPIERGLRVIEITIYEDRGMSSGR
UniProt O75496: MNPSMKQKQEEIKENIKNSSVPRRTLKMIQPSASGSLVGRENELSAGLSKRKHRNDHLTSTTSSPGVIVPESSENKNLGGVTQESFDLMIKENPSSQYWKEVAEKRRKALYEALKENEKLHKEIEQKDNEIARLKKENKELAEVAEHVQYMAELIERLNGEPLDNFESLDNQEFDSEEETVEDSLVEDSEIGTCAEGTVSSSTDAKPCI
UniProt P63218: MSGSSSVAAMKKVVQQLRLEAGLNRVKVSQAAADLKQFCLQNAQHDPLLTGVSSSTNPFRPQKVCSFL
UniProt I6L899: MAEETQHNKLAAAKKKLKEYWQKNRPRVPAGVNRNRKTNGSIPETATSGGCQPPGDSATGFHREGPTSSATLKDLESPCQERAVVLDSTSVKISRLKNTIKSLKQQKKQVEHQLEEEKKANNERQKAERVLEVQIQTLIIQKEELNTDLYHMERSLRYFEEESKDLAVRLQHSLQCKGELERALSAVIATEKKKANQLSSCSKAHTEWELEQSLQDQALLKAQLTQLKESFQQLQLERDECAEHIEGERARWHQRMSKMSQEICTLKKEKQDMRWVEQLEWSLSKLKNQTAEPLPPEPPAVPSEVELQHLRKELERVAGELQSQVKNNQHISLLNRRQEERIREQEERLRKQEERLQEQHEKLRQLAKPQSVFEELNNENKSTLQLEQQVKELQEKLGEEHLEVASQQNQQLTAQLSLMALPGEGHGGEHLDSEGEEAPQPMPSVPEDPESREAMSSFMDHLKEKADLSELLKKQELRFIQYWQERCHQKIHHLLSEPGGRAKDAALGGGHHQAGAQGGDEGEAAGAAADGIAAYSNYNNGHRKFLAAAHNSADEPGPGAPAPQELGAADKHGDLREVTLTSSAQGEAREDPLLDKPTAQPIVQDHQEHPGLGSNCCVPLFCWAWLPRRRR
UniProt P13224: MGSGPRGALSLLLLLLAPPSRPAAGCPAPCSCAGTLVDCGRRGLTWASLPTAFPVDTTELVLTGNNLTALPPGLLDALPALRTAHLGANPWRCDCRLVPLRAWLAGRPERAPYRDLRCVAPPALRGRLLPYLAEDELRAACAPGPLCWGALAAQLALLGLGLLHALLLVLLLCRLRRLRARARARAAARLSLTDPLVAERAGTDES
UniProt Q9NZD2: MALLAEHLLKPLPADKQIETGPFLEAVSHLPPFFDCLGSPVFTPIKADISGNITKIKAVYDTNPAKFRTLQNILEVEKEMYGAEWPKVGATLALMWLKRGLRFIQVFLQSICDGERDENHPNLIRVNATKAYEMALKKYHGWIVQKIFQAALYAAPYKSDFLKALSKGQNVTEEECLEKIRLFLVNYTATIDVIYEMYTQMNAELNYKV
UniProt Q12849: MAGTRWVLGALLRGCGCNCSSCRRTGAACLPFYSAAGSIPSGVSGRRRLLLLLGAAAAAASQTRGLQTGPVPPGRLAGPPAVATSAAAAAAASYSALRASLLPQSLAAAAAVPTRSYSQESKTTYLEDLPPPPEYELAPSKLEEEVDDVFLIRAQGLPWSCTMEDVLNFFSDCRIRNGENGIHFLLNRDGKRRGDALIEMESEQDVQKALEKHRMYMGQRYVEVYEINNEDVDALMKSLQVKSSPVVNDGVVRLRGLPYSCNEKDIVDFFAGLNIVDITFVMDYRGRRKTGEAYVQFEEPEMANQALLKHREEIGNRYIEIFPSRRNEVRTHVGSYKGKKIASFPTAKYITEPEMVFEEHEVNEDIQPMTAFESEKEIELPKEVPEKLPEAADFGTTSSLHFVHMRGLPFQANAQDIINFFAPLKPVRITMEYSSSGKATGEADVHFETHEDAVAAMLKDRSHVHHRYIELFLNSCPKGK
UniProt Q9HCL2: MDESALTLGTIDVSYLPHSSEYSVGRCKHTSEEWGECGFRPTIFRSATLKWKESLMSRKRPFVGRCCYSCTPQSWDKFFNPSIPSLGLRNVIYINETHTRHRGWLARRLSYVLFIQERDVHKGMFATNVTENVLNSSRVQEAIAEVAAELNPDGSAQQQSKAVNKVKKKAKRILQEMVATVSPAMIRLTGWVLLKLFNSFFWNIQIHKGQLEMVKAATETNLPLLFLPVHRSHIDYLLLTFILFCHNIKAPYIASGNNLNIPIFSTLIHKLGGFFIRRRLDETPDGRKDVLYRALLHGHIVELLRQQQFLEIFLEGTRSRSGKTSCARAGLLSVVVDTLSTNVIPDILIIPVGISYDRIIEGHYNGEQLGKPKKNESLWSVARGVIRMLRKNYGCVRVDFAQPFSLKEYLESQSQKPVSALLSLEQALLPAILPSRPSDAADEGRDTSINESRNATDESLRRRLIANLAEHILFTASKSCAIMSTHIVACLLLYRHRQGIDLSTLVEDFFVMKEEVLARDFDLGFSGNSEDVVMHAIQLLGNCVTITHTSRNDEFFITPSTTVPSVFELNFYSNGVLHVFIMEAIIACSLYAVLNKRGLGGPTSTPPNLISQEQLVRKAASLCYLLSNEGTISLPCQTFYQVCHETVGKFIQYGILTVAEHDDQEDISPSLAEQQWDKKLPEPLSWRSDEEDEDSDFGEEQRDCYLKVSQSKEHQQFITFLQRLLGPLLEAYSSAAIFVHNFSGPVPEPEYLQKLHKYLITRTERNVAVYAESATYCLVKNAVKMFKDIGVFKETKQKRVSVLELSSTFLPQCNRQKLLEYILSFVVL
UniProt Q86VQ1: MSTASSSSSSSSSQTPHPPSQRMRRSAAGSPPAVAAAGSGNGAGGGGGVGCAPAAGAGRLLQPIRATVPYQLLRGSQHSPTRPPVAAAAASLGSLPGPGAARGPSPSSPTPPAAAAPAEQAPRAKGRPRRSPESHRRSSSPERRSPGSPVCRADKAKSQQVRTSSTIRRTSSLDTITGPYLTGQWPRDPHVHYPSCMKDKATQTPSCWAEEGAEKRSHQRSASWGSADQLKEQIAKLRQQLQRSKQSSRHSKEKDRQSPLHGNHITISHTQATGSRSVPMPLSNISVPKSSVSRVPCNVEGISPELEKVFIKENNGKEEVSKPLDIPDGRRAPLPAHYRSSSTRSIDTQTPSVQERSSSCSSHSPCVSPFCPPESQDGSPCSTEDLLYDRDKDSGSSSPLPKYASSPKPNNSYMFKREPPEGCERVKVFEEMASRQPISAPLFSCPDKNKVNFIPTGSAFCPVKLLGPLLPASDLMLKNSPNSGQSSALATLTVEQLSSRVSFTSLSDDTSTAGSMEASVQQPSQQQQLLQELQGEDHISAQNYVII
UniProt Q8WWB7: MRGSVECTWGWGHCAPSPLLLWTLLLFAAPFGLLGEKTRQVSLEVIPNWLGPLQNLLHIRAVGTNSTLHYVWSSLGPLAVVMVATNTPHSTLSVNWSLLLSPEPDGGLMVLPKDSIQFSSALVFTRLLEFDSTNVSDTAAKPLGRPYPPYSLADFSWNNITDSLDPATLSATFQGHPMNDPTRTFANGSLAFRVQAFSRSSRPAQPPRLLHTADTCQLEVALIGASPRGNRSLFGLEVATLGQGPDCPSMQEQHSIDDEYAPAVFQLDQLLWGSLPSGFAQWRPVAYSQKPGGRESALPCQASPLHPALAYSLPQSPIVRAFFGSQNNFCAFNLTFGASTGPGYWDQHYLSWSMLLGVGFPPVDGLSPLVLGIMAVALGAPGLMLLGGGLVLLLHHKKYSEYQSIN

Legend:
Experiment in all cases: log2 fold change, soluble protein after heating vs DMSO (PISA); higher = thermal stabilisation; K562 cells, 10 uM, 30 min; active = over 0.2 and 3.5 SD of the protein, either way, in both replicates (recomputed)
erlotinib = compound: C#Cc1cccc(Nc2ncnc3cc(OCCOC)c(OCCOC)cc23)c1 [erlotinib]
Outline: (§1)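 K562 cells at 2×10^6 cells/mL were exposed to 10 μM compound for 30 min, then aliquots were heated for 3 min across 48°C-58°C, pooled, and extracted in PBS containing 0.5% NP-40 at 4°C. The supernatant after 21,000xg for 90 min was taken as soluble protein and measured by TMTpro 16plex LC-MS/MS with channel sums equalised. Thermal stability is reported relative to control samples, with values from duplicates. Fold changes are given on a log2 scale.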

[1] = compound: C/C(=N\NC(=O)C1=CC(=CC=C1)S(=O)(=O)N2CCOCC2)/C3=C(C=CC(=C3)Cl)O
Outline: as §1

[2] = compound: C1=CC(=C(C=C1Cl)C2=NC3=NC=CN=C3C(=N2)NC4=CC=NC=C4)F
Outline: as §1

[3] = compound: C1=CC(=CC=C1C2=NC3=C(N2)C=C(C=C3)C(=O)N)OC4=CC=C(C=C4)Cl
Outline: as §1

[4] = compound: C1=CC2=C(C=CC(=C2)/C=C\3/C(=O)NC(=NCC4=CC=CS4)S3)N=C1
Outline: as §1

[5] = compound: C1=CC2=NC=CN=C2C=C1/C=C/3\C(=O)NC(=O)S3
Outline: as §1

[6] = compound: C1=CC=C(C=C1)C2=NC(=C(N2)C3=CC=NC=C3)C4=CC(=C(C=C4)Cl)O
Outline: as §1

[7] = compound: C1=CC=C2C(=C1)C3=NNC4=CC=CC(=C43)C2=O
Outline: as §1

[8] = compound: C1CCN(C1)C(=O)NC2=CC=CC(=C2)NC3=NC=C(C(=N3)NCCC4=CN=CN4)Br
Outline: as §1

[9] = compound: C1CN(CCC1(CC2=CC=C(C=C2)Cl)N)C3=NC=NC4=C3C=CN4
Outline: as §1

Measured: log2 fold change

GNB2 (UniProt P62879)
inactive: erlotinib 0.003 | [1] 0.079 | [2] -0.04 | [3] 0.051 | [4] -0.016 | [5] 0.007 | [6] -0.003 | [7] 0.008 | [8] -0.057 | [9] -0.002

GIT2 (UniProt Q14161)
inactive: erlotinib 0.111 | [1] 0.32 | [2] -0.166 | [3] -0.057 | [4] 0.027 | [5] 0.426 | [7] 0.044

GLMN (UniProt Q92990)
inactive: erlotinib 0.014 | [1] 0.001 | [2] 0.029 | [3] -0.024 | [4] -0.001 | [5] 0.039 | [6] 0.001 | [7] -0.001 | [8] 0.015 | [9] -0.007

GNPDA2 (UniProt Q8TDQ7)
inactive: erlotinib 0.005 | [1] 0.037 | [2] -0.023 | [3] 0.042 | [4] 0.027 | [5] 0.079 | [6] -0.058 | [7] -0.061 | [8] 0.042 | [9] -0.014

GON7 (UniProt Q9BXV9)
inactive: erlotinib 0.031 | [1] -0.092 | [2] 0.147 | [3] 0.033 | [4] -0.086 | [5] 0.039 | [6] -0.028 | [7] -0.127 | [8] -0.014 | [9] -0.069

GPAT4 (UniProt Q86UL3)
inactive: erlotinib -0.017 | [1] -0.002 | [2] 0.06 | [3] -0.021 | [4] -0.016 | [5] -0.016 | [6] -0.01 | [7] 0.032 | [8] -0.087 | [9] 0.07

GPATCH11 (UniProt Q8N954)
inactive: erlotinib 0.017 | [1] -0.026 | [2] -0.039 | [3] 0.046 | [4] 0.003 | [5] 0.104 | [6] -0.005 | [7] 0.045 | [8] -0.094 | [9] 0.073

GPX3 (UniProt P22352)
inactive: erlotinib -0.217 | [1] -0.089 | [2] 0.052 | [3] 0.015 | [4] -0.046 | [5] -0.048 | [6] -0.106 | [7] -0.053 | [8] -0.192 | [9] 0.143

GPALPP1 (UniProt Q8IXQ4)
inactive: erlotinib 0.011 | [1] 0.003 | [2] -0.002 | [3] 0.029 | [4] 0.041 | [5] 0.045 | [6] -0.069 | [7] 0.005 | [8] 0.071 | [9] 0.011

GNMT (UniProt Q14749)
inactive: erlotinib 0.009 | [1] 0.151 | [3] -0.095 | [4] 0.114 | [5] -0.176 | [6] -0.07 | [7] -0.179 | [8] -0.15 | [9] 0.05

GNS (UniProt P15586)
inactive: erlotinib -0.033 | [1] -0.003 | [2] 0.005 | [3] 0.004 | [4] 0.028 | [5] 0.026 | [6] 0.03 | [7] -0.04 | [8] 0.023 | [9] 0.061

GOLGA7 (UniProt Q7Z5G4)
inactive: erlotinib 0.059 | [1] 0.023 | [2] 0.121 | [3] 0.033 | [4] -0.008 | [5] 0.081 | [7] -0.035 | [8] -0.06 | [9] 0.032

GPI (UniProt P06744)
inactive: erlotinib 0.015 | [1] 0.018 | [2] 0.059 | [3] -0.026 | [4] -0.018 | [5] -0.019 | [6] 0.001 | [7] 0.019 | [8] -0.023 | [9] 0.021

GMNN (UniProt O75496)
inactive: erlotinib -0.022 | [1] 0.013 | [2] 0.037 | [3] 0.01 | [4] -0.024 | [5] 0.016 | [6] -0.08 | [7] -0.011 | [8] -0.001 | [9] -0.001

2 records drawn at random from those above, as already listed:
GOLGA7 (UniProt Q7Z5G4)
inactive: erlotinib 0.059 | [1] 0.023 | [2] 0.121 | [3] 0.033 | [4] -0.008 | [5] 0.081 | [7] -0.035 | [8] -0.06 | [9] 0.032

GNS (UniProt P15586)
inactive: erlotinib -0.033 | [1] -0.003 | [2] 0.005 | [3] 0.004 | [4] 0.028 | [5] 0.026 | [6] 0.03 | [7] -0.04 | [8] 0.023 | [9] 0.061

Carrying on:

GPX4 (UniProt P36969)
inactive: erlotinib -0.021 | [1] 0.035 | [2] -0.012 | [3] 0.057 | [4] -0.007 | [5] 0.006 | [6] 0.142 | [7] -0.063 | [8] -0.036 | [9] 0.058

GMPPA (UniProt Q96IJ6)
inactive: erlotinib 0.027 | [1] 0 | [2] 0.04 | [3] -0.007 | [4] -0.027 | [5] -0.016 | [6] 0.028 | [7] 0.023 | [8] -0.032 | [9] 0.05

GNG5 (UniProt P63218)
active: [2] 0.436
inactive: erlotinib -0.07 | [1] 0.01 | [3] 0.089 | [4] 0.031 | [5] -0.001 | [6] 0.072 | [7] 0.038 | [8] -0.037 | [9] -0.044

GOLGA8R (UniProt I6L899)
inactive: erlotinib 0.377 | [1] -0.394 | [3] -0.019 | [4] 0.078 | [5] -0.008 | [6] 0.058 | [7] -0.049 | [8] -0.097 | [9] 0.302

GLB1 (UniProt P16278)
inactive: erlotinib -0.082 | [1] 0.038 | [2] 0 | [3] -0.006 | [4] 0.018 | [5] -0.028 | [6] 0.013 | [7] -0.011 | [8] 0.017 | [9] -0.009

GOT2 (UniProt P00505)
inactive: erlotinib -0.019 | [1] -0.012 | [2] 0.02 | [3] 0.011 | [4] -0.017 | [5] -0.017 | [6] 0.004 | [7] 0.002 | [8] -0.005 | [9] 0.024

GP1BB isoform 2 (UniProt P13224)
inactive: erlotinib -0.042 | [1] -0.006 | [2] 0.002 | [3] 0.031 | [4] -0.027 | [5] -0.009 | [7] -0.024 | [8] -0.04 | [9] 0.012

GLTP (UniProt Q9NZD2)
inactive: erlotinib -0.007 | [1] -0.123 | [3] -0.019 | [4] 0.127 | [5] -0.009 | [6] -0.136 | [7] 0.015 | [8] -0.032 | [9] -0.101

GRSF1 (UniProt Q12849)
inactive: erlotinib -0.044 | [1] 0 | [2] -0.057 | [3] -0.152 | [4] -0.03 | [5] -0.005 | [6] -0.025 | [7] -0.079 | [8] -0.079 | [9] -0.033

GPAM (UniProt Q9HCL2)
inactive: erlotinib 0.025 | [1] -0.246 | [2] -0.065 | [3] -0.028 | [4] 0.387 | [6] 0.041 | [7] 0.284 | [8] 0.131 | [9] 0.086

GPD2 (UniProt P43304)
inactive: erlotinib -0.01 | [1] -0.015 | [2] 0.051 | [3] 0.02 | [4] 0.004 | [5] 0.026 | [6] 0.067 | [7] -0.021 | [8] 0.008 | [9] 0.024

GREB1 (UniProt Q4ZG55)
inactive: erlotinib 0.218 | [2] 0 | [3] -0.132 | [4] 0.092 | [7] -0.044 | [8] -0.06 | [9] 0.291
active: [1] -0.751

GMPS (UniProt P49915)
inactive: erlotinib -0.002 | [1] 0.062 | [2] 0.072 | [3] 0.019 | [4] 0.04 | [5] 0.023 | [6] 0.073 | [7] 0.031 | [8] 0.003 | [9] 0.007

GLCCI1 (UniProt Q86VQ1)
inactive: erlotinib 0.027 | [1] -0.101 | [2] -0.058 | [3] -0.006 | [4] 0.091 | [5] 0.023 | [6] -0.264 | [7] -0.017 | [8] -0.044 | [9] -0.024

GOSR2 isoform 2 (UniProt O14653)
inactive: erlotinib 0.034 | [1] 0.144 | [3] 0.031 | [4] -0.145 | [5] 0.027 | [6] 0.052 | [7] -0.016 | [8] -0.078 | [9] -0.035

GLE1 (UniProt Q53GS7)
inactive: [1] -0.039 | [4] -0.194 | [7] -0.143

GLMP (UniProt Q8WWB7)
inactive: [1] 0.002 | [2] -0.034 | [4] 0.076 | [6] 0.051 | [7] 0.054 | [8] -0.004 | [9] 0.058

GPAA1 (UniProt E9PLG8)
inactive: [1] 0.032 | [4] -0.009 | [5] 0.028 | [7] 0 | [8] 0.027 | [9] -0.099

GSE1 (UniProt Q14687)
inactive: [5] -0.269 | [6] -0.048
